PubChem BioAssay AID504774 | Drosophila RNAi Screening Center, 2011

- Purpose: 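Genes required for cells to withstand methyl methanesulphonate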 (primary screen)
- Cell system: Drosophila Kc167 cells
- Knock-down reagent: long dsRNA against Drosophila genes, about 0.25 µg dsRNA per well
- Duration: about 6 days: 3 days knock-down, then 3 days with or without MMS
- Challenge: methyl methanesulphonate 0.004% (w/v) for 3 days after knock-down
- Detection: 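ATP-dependent luminescence as a measure of live cells in MMS-exposed wells, quantile normalised within each plate, with replicate values also given as a mean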
- Reading the numbers: mean viability with MMS and viability with MMS: higher = more surviving cells after MMS
In all, the deposit lists about 23,000 reagents; this is an unselected part of those that have a named target and a result. 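Values are quantile-normalised luminescence on an arbitrary scale; higher means more cells surviving MMS.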 Reagents against one gene are numbered here. Reagent sequences are not shown.

no.	target gene	reagent	mean viability with MMS	viability with MMS, replicate 1	viability with MMS, replicate 2
1	pins	1	3.45e6	3.90e6	3.87e6
2	CG14110	1	3.48e6	3.92e6	3.97e6
3	Mps1	1	3.62e6	4.06e6	4.13e6
4	scny	1	3.23e6	3.70e6	3.71e6
5	scny	2	3.21e6	3.59e6	3.59e6
6	scny	3	3.19e6	3.52e6	3.62e6
7	CalpB	1	3.47e6	4.00e6	3.86e6
8	wash	1	3.62e6	3.90e6	4.40e6
9	inaF-C	1	3.60e6	4.12e6	4.03e6
10	lama	1	3.47e6	3.94e6	3.91e6
11	CG11131	1	3.70e6	4.21e6	4.09e6
12	CG11131	2	3.41e6	3.91e6	3.88e6
13	nxf4	1	3.35e6	3.90e6	3.76e6
14	CAHbeta	1	3.53e6	4.05e6	3.95e6
15	robls54B	1	3.50e6	4.01e6	3.92e6
16	Itgbn	1	3.49e6	3.89e6	4.03e6
17	Uro	1	3.32e6	3.67e6	3.77e6
18	Urm1	1	3.66e6	4.11e6	4.11e6
19	Tmem43	1	3.40e6	3.88e6	3.82e6
20	CG7194	1	3.61e6	4.07e6	4.14e6
21	pall	1	3.41e6	3.98e6	3.78e6
22	Ack-like	1	3.42e6	3.68e6	4.02e6
23	CG1785	1	3.53e6	3.94e6	4.04e6
24	CG10183	1	3.39e6	3.81e6	3.81e6
25	CG31689	1	3.51e6	3.96e6	3.98e6
26	CG13972	1	3.45e6	3.93e6	3.83e6
27	ko	1	3.58e6	4.07e6	4.05e6
28	mRpL9	1	3.50e6	4.15e6	3.80e6
